# Measurements reported in US11306076B2, “Silibinin lipoic acid ester with hepatoprotective activity and a method of preparing the same” (XI'AN TAIKOMED PHARMACEUTICAL TECHNOLOGY CO., LTD., priority 2020, dated 2022).
# Assay: DPPH radical scavenging activity assay
# Type: biochemical
# Conditions: 517 nm; for Absorbance Ai: sample + DPPH solution, 30 min; for Absorbance Aj: sample + toluene (no DPPH)
# Description: 2,2-Diphenyl-1-picryl hydrazyl (DPPH) is an organic compound composed of a stable organic radical. In the DPPH molecule, due to the presence of multiple electron-withdrawing —NO2 and large π bonds of the benzene ring, nitrogen free radical is stabilized. Its methanol solution is purple and has a maximum absorption peak at 517 nm. After the addition of an antioxidant, DPPH captures an electron to be paired with the free electron, and the purple fades and turns into a yellow substance. The absorption at 517 nm disappears, and the degree of fading is quantitatively related to the number of electrons it captures. Based on this principle, a spectrophotometer is used to detect the change of the absorbance of the DPPH radical and the sample solution, and the ability of the sample to provide hydrogen atoms and scavenge free radicals can be measured.
# Preparation of DPPH solution: measuring exact amount of 2,2-diphenyl-1-picryl hydrazyl (DPPH) and dissolving in toluene to prepare a 0.2 mmol/L DPPH solution, stored at 0° C. in dark.
# Preparation of test solution: Vc (vitamin C, positive control), compound of formula (I) (sample), silibinin (control) and lipoic acid (control). The sample solution was subjected to gradient dilution with toluene, and three sets of controls were separately dissolved in a test tube with a certain amount of toluene to prepare the same concentration gradient as the sample.
# Sample liquid absorbance measurement: Take 2 mL of sample solution (Table 2 Vc, B, C), add 2 mL of DPPH solution with concentration of 2×10^−4 mol/L, mix and react in the dark at room temperature for 30 min, adjust to zero with toluene, and measure at 517 nm. The absorbance Ai was simultaneously measured for the absorbance Aj of 2 mL of toluene mixed with 2 mL of the sample solution and the absorbance Ao of 2 mL of DPPH solution mixed with 2 mL of toluene (the experimental results are shown in Table 3).
# clearance rate (%)=[1−(Ai−Aj)/Ao]*100% Clearance calculation: […]
Compound,Absorbance Ai (1.76 ppm),Absorbance Ai (8.80 ppm),Absorbance Ai (21.12 ppm),Absorbance Ai (42.24 ppm),Absorbance Ai (79.20 ppm),Absorbance Ai (112.64 ppm),Absorbance Ai (281.60 ppm),Absorbance Ai (492.80 ppm),Absorbance Ai (792.00 ppm),Absorbance Ai (915.20 ppm),Absorbance Aj (1.76 ppm),Absorbance Aj (8.80 ppm),Absorbance Aj (21.12 ppm),Absorbance Aj (42.24 ppm),Absorbance Aj (79.20 ppm),Absorbance Aj (112.64 ppm),Absorbance Aj (281.60 ppm),Absorbance Aj (492.80 ppm),Absorbance Aj (792.00 ppm),Absorbance Aj (915.20 ppm)
"COc1cc(C2Oc3cc([C@H]4Oc5cc(O)cc(O)c5C(=O)[C@@H]4O)ccc3OC2COC(=O)CCCCC2CCSS2)ccc1O (stereo partly drawn) [Compound of Formula (I), (3-(4-hydroxy-3-methoxyphenyl)-6-((2R,3R)-3,5,7-trihydroxy-4-oxochroman-2-yl)-2,3-dihydrobenzo[b][1,4]dioxin-2-yl)methyl 5-(1,2-dithiolan-3-yl)pentanoate]",0.736,0.682,0.598,0.509,0.300,0.226,0.203,0.155,0.134,0.099,0.039,0.045,0.059,0.061,0.057,0.059,0.054,0.049,0.055,0.048
"O=C(O)CCCCC1CCSS1 (stereo not shown) [C, Lipoic acid]",0.883,0.969,0.797,0.730,0.626,0.579,0.453,0.330,0.291,0.267,0.053,0.045,0.048,0.045,0.057,0.056,0.043,0.042,0.040,0.031
